Source: article PMC10163288
Some of the results follow.

B1: il2ra_site2_3nfp_normal_mot_HHH_b1_00660_af2_000000090_0001_40_57_H_._HHH_b2_01268_0001_0000100006_0000001_0 (protein)
chain: SSSSSDEEEEEVEELLEEAKRIPDPEERRQVLSRAFAIAAEANDFELFALVSEVREKLQSSSSSS
B2: il2ra_site2_2erj_sap_28_mot_HHH_b1_02757_000000041_0001_41_57_H_._HHH_b1_03663_0001_0000600022_0000001_0_0001 (protein)
chain: SSSSDWLHRLYEILDRLTRLLEEGDEEEVERLLEELQRLAEETDTLSAEQFLEDLERKLRSSSSS
B3: il2ra_site2_2erj_normal_mot_76e6e8f7232a9e65eeaab5ff8ecb4c96_0001_000000231_0001_17_31_H_._HHH_b2_00823_0001_0000500020_0000001_1 (protein)
chain: SSSSSDEAERQVEELLEEAKRIEDPARAYAVLAEAARIALELEDEELEKEVSKLFTEIYSSSSSS
B4: il2ra_site2_2erj_sap_26_mot_HHH_b2_03173_af2_000000175_0001_41_57_H_._HHH_b1_04625_0001_0000100006_0000001_0_0001 (protein)
chain: SSSSDEEEEEVVRLLWEALRAHLEGDEEKAKELIEEAEELAKEANDPKLEEKVKMFASSLSSSSS
B5: il2ra_site1_2b5i_sap_11_mot_f5ff40796168375b462bec8614a1db4a_0001_1_000000138_0001_53_65_H_._HHH_b1_06660_af2_0001_0000100004_0000001_0_0001_af2pred_0001_af2pre … (protein)
chain: SSSSSDREEALELLREANELAKNGDDEEARRVLEQALELAEEGGDPALARLIRAALKLLGSSSSS
B6: il2ra_site1_3nfp_sap_7_mot_HHH_b2_00594_af2_000000186_0001_1_15_H_._HHH_b1_02490_0001_0001200022_0000001_0_0001_af2pred_0001_af2pred_1_swapped (protein)
chain: SSSSSALELLFEAARRLAELLDRGDEEEAERLLEEVARELRELGNEKAARQLERSFERFAKSSSS
B7: il2ra_site1_1z92_sap_21_mot_22370d59370c406a0c205a431f537cfa_0001_000000027_0001_1_14_H_._HHH_b1_05276_0001_0000300011_0000001_1_0001_af2pred_0001_af2pred_1_swa … (protein)
chain: TEVSQLIDEALEKKDPRLLEEAVEILAERFNIPPEKAKRLLEKLIKQIFPPEEQEILEELAKRVP
B8: il2ra_site1_1z92_sap_12_mot_3d499ac7f0d67033d193cd32a1d98c91_0001_af2_000000108_0001_54_65_H_._448c55fe706e6ec391655c6bc0ba6a29_0001_1_af2_0001_0000600020_00000 … (protein)
chain: SSSSSAKEYTLELIRALVRSLKRTGDPKVEERIRFALRNLRLLGDEEAVEEVEELLREAKSSSSS
B9: il2ra_site2_3nfp_normal_mot_HHH_b1_04762_000000120_0001_42_54_H_._HHH_b1_05779_0001_0000700015_0000001_0 (protein)
chain: SSSSSEVEEYIRAALLLVEEALEEGDPEAARRHLEMARKLAEDAKNEELKEEVERLEEELSSSSS
B10: il2ra_site1_2b5i_normal_mot_f5ff40796168375b462bec8614a1db4a_0001_1_000000138_0001_53_65_H_._HHH_b1_08714_af2_0001_0000500020_0000001_0_af2pred_dldesign_0_af2pr … (protein)
chain: SSSSSDDTDVVDVEELIEEAKKIEDENLRKKILILAERVARKAKDPRLEATLAEIRAALSSSSSS
B11: il2ra_site1_2b5i_sap_13_mot_0e5a94e4a5addaac739760efb25f0f5d_0001_000000180_0001_18_32_H_._HHH_b1_02875_0001_0000500014_0000001_0_0001 (protein)
chain: SSSSNREDTRALVRIVWRIRWEFGLDFEDARALAELAAELLDRGVSVEEIEELLRELAEELSSSS
B12: il2ra_site1_2b5i_sap_15_mot_HHH_b1_07314_000000139_0001_1_15_H_._HHH_b1_02094_af2_0001_0000200011_0000001_0_0001 (protein)
chain: SSSSSTQRTFEATLRLLEEALEEIDDEEVRQRVEELLKEAEEKNDIHLLREAMRIAQEYLSSSSS
B13: il2ra_site2_3nfp_sap_18_mot_HHH_b1_00239_000000199_0001_23_39_H_._84ae4b0559e896e2d49ce04ad7058360_0001_0001_0000300014_0000001_0_0001 (protein)
chain: SSSSSDDHEAYERVVKLLKEANHIEDEEEAREVLKEARELAEEFNSEVLRRSVEDVARALSSSSS
B14: il2ra_site1_1z92_normal_mot_3d621733409fa4d2bc95fa1761ba6d8e_0001_af2_000000005_0001_1_12_H_._HHH_b2_07461_af2_0001_0000200018_0000001_0 (protein)
chain: SSSSSEHSRKVFELMQRLNEAVRNGDEEEARELAEELLKLAEESGSKSYARLAEKVLEDLSSSSS
B15: il2ra_site1_2b5i_normal_mot_f5ff40796168375b462bec8614a1db4a_0001_1_000000138_0001_53_65_H_._HHH_b2_07752_0001_0000200011_0000001_0_af2pred_dldesign_0_af2pred (protein)
chain: SSSSENRRELLRELLERARALYEAGEKEEALKLLKMARRLAKKENDEETLKEIEELEKLLSSSSS
B16: il2ra_site2_2erj_sap_19_mot_HHH_b1_01555_af2_000000123_0001_22_39_H_._HHH_b2_02358_af2_0001_0000400024_0000001_0_0001_af2pred_0001_1_af2pred_swapped (protein)
chain: SSSSDEAEELLEEAKRLLEEGNPEEAEKVLREAATLAAELGDEELFREILKLLELVEELGSSSSS
B17: il2ra_site1_1z92_normal_mot_HHH_b1_03515_000000289_0001_1_19_H_._HHH_b1_05176_af2_0001_0000300060_0000001_0_af2pred_0001_af2pred (protein)
chain: SSSSSDTSIKKFVRVIAEIAGLSEEQKEQLEELAEELLEEGYSDREILEILNKLAAELHNSSSSS
B18: il2ra_site2_2erj_normal_mot_HHH_b1_04481_000000056_0001_1_18_H_._HHH_b1_03298_0001_0000600014_0000001_0 (protein)
chain: SSSSSSDIEELLEELEKLIEEGNPSEFLEVLAEAAELIRERNDEELAKRLNELWREFHSSSSSSS

Biological target: il2ra, P01589
Test: yeast display titration

Apparent Kd, inactive:
B1 no binding seen
B2 no binding seen
B3 no binding seen
B4 no binding seen
B5 no binding seen
B6 no binding seen
B7 no binding seen
B8 no binding seen
B9 no binding seen
B10 no binding seen
B11 no binding seen
B12 no binding seen
B13 no binding seen
B14 no binding seen
B15 no binding seen
B16 no binding seen
B17 no binding seen
B18 no binding seen

2 entries drawn at random from those above, as already listed:
Apparent Kd, inactive:
B2 no binding seen
B5 no binding seen
